# According to paper PMC12548414:
# Among all 1,600 compounds or so, about 20 (1%) showed an effect of 50% or more. The list shows a part of the results.
# System: T1, E. coli pLC1021 (luc-trpAt trans-translation reporter)
# T1 construct: pLC1021 luc-trpAt reporter strain
# Parameters: species or system Escherichia coli pLC1021; luc-trpAt non-stop luciferase reporter; luminescence rises when trans-translation is inhibited; normalized to KKL-35 and DMSO
# Conditions: reporter signal, KKL-35 = 100%; rise means trans-translation inhibition; 2 h, 20 µM
# Experimental: The luciferase screen was performed as previously described ([16]). […] 48 µL of cells was transferred to white 96-well plates, and 2 µL DMSO or 20 µM compound, or 20 µM KKL-35 was added. Plates were sealed with adhesive film, vortexed gently to mix, and incubated at room temperature for 2 h. 50 µL Bright-Glo reagent (Promega, Madison, WI) was added to each well, and the plates were sealed with adhesive film, vortexed vigorously, and incubated for an additional 10 min at room temperature. Luminescence was measured at 560 nm using a SpectraMax i3 microplate reader and readings for each plate were normalized to the average of three KKL-35-treated wells (positive control) and three DMSO-treated wells (negative control) within the plate to correct for plate-to-plate and day-to-day variations. Results from at least two biological repeats were averaged, and GraphPad Prism was used to plot the data. We screened a library of 1,601 anti-tubercular small molecules for their ability to inhibit trans-translation using a luciferase reporter in Escherichia coli. In this luc-trpAt reporter, the firefly luciferase gene has a trpA transcriptional terminator before the stop codon, such that luciferase is translated from a non-stop mRNA ([16]). When trans-translation is active, the luciferase will be tagged and degraded, but when trans-translation is inhibited, active luciferase will accumulate, resulting in a luminescent signal when luciferin is added. Luciferase activity was measured after growth in the presence of compounds from the library at 20 µM, using the known trans-translation inhibitor KKL-35 as a positive control (Fig. 1A) ([16], [17]). Compounds with activity one standard deviation above the median were scored as positive (Fig. S1 and Table S1).
row,SMILES,% activation [%]
1,O=C(Nc1ccc(Cl)c(C(F)(F)F)c1)c1csc2c1CCCC2 [KKL-1448],2
2,CCN(CC)c1ccc(-c2nn3c(-c4n[nH]c5c4CCC5)nnc3s2)cc1 [KKL-1714],1
3,CC(C)(c1ccccc1)c1ccc(OCC(O)CNC2CCN(Cc3ccccc3)CC2)cc1 (centres unmarked) [KKL-0808],0
4,CC(=O)Nc1ccc(Nc2cc(C(C)C)nc3c(-c4ccccc4)c(C)nn23)cc1 [KKL-0882],0
5,CCCOC(=O)CSc1nnc(-c2ccc(OC)cc2)o1 [KKL-1228],7
6,Cc1c(CNC(=O)c2cnn3c2NC(c2ccc(Br)cc2)CC3C(F)(F)F)cnn1C (centres unmarked) [KKL-0964],10
7,COC(=O)[C@@H](NC(=O)c1nc(N2CCCC2)nc2c1CCCC2)c1ccccc1 [KKL-1145],0
8,COc1cc(NC(=O)c2ccc3c(c2)OCCO3)ccc1NC(=O)c1ccccc1Cl [KKL-1054],3
9,Cc1ccc(-c2nn(-c3cccc(F)c3)cc2CNCc2[nH]nc3c2CCCCC3)o1 [KKL-0656],0
10,CN1CCN(c2cc(-c3ccc(F)cc3)nc(-c3ccncc3)n2)CC1 [KKL-1844],0
11,Cc1c(C)n(C2CCCC2)c2ncnc(OC3CCN(C(=O)C(C)c4ccccc4)CC3)c12 (centres unmarked) [KKL-0506],0
12,Clc1ccc(OCc2ccccc2Cl)c(CNC2CCCCC2)c1 [KKL-1221],0
13,Cc1ccc(Nc2ccccc2N)cc1 [KKL-0834],0
14,CCOC(=O)CCNC(=O)c1cc(COc2cc(C)c(Cl)c(C)c2)on1 [KKL-1113],0
15,c1ccc(CN2CCCC3(C2)NCCc2c3[nH]c3ccccc23)cc1 (centres unmarked) [KKL-0700],0
16,Cc1c(OC(C)C)ccc2c(-c3ccccc3)cc(=O)oc12 [KKL-1226],1
17,CCSc1nnc(NC(=O)c2ccc3ccccc3n2)s1 [KKL-0809],5
18,O=C(Oc1cccc2cccnc12)c1ccc(Cl)c(S(=O)(=O)N2CCOCC2)c1 [KKL-1082],4
19,"O=C(Nc1nc(NC(=O)c2ccco2)n(-c2ccccc2)n1)c1ccccc1 [KKL-1005, N-(5-benzamido-2-phenyl-1,2,4-triazol-3-yl)furan-2-carboxamide]",44
20,Cc1ccc(NC(=O)c2ccc(OCC(=O)OC3CCCCC3)cc2)cc1 [KKL-1469],11
21,O=C(c1cc(=O)c2ccccc2o1)N1CCc2c([nH]c3ccccc23)C1c1ccccc1F (centres unmarked) [KKL-0623],0

# 5 entries picked at random from the list so far:
row,SMILES,% activation [%]
15,c1ccc(CN2CCCC3(C2)NCCc2c3[nH]c3ccccc23)cc1 (centres unmarked) [KKL-0700],0
17,CCSc1nnc(NC(=O)c2ccc3ccccc3n2)s1 [KKL-0809],5
10,CN1CCN(c2cc(-c3ccc(F)cc3)nc(-c3ccncc3)n2)CC1 [KKL-1844],0
1,O=C(Nc1ccc(Cl)c(C(F)(F)F)c1)c1csc2c1CCCC2 [KKL-1448],2
3,CC(C)(c1ccccc1)c1ccc(OCC(O)CNC2CCN(Cc3ccccc3)CC2)cc1 (centres unmarked) [KKL-0808],0

# (cont.)

row,SMILES,% activation [%]
1,CC(=O)c1ccc(NC(=O)Nc2cc(OCC(F)(F)F)cc(OCC(F)(F)C(F)F)c2)cc1 [KKL-1332],0
2,O=C(c1cnn(C(=O)c2ccco2)c1)c1cc(F)ccc1O [KKL-1685],3
3,Cc1cccc(-c2ccc(NC(=O)C3CCN(C(=O)CCc4cnn(C)c4)CC3)cc2)c1 [KKL-1170],0
4,Cc1ccc2nc(Cl)c(CNCc3cccs3)cc2c1 [KKL-1741],0
5,Cc1ccc(NC(=O)C23CC4CCC(CC(C4)C2)C3)cc1 [KKL-1401],0
6,O=C(Oc1c(Cl)cc(Cl)c2cccnc12)c1ccccc1[N+](=O)[O-] [KKL-1418],90
7,CCc1ccc(OCC(=O)Nc2ccc(N3CCN(C(=O)c4cccs4)CC3)c(Cl)c2)cc1 [KKL-0752],0
8,CN(C)c1ccc(CNC23CC4CC(CC(C4)C2)C3)cc1 [KKL-0764],0
9,c1ccc2c(NC3C4CC5CC(C4)CC3C5)nc(N3CCOCC3)nc2c1 (centres unmarked) [KKL-0361],0
10,CSc1cccc(C(=O)Nc2nc(-c3ccccn3)cs2)c1 [KKL-1683],10
11,COCCCNC1=NN=C(c2cc(C)n(-c3ccccc3F)c2C)CS1 [KKL-0798],0
12,OCC#CCSc1nnc(-c2cccc3ccccc23)o1 [KKL-1198],1
13,COc1cccc(-c2ccccc2NC(=O)C2CCN(Cc3ccc(OC)c(C)c3)CC2)c1 [KKL-1151],0
14,Cc1cccc(-c2cccc(NC(=O)C3CCCN(C4CCSCC4)C3)c2)c1 (centres unmarked) [KKL-1159],2
15,CCOC(=O)c1cc(-c2ccccc2)sc1N=C(S)NC1CCN(Cc2ccccc2)CC1 [KKL-1339],0
16,C=C(C)[C@@H]1CC=C(CN2CCC(O)(Cc3cc(-c4cccc(OC)c4)no3)CC2)CC1 [KKL-0638],1
17,CCC(=O)N1CCc2c([nH]c3ccccc23)C12CCN(Cc1ccccc1)CC2 [KKL-1236],1
18,Cc1ccc2c(C)nc(Nc3nc(O)c4ccccc4n3)nc2c1 [KKL-0675],1
19,O=C(c1ccco1)N(CCCn1ccnc1)c1nc2c(Cl)cccc2s1 [KKL-1707],0
20,O=C(Nc1nnc(-c2ccc(Cl)s2)o1)c1ccc(Cl)s1 [KKL-1762],0
21,O=C(CSc1nnc(-c2cccs2)o1)OC1CCCCC1 [KKL-1655],0

row,SMILES,% activation [%]
1,CCn1nc(C)cc1C(=O)N1CCc2c([nH]c3ccccc23)C1c1cc(F)ccc1F (centres unmarked) [KKL-1183],0
2,Cc1ccc(C2CC(C(F)(F)F)n3ncc(C(=O)NCc4ccc5c(c4)OCO5)c3N2)cc1 (centres unmarked) [KKL-1825],0
3,Cc1nc(C)c(-c2csc(Nc3ccc(Br)cc3)n2)s1 [KKL-0325],0
4,COc1ccc2[nH]c(CN3CCc4c([nH]c5ccccc45)C3C)cc2c1 (centres unmarked) [KKL-0517],5
5,COc1ccc2[nH]c(CN(CCCn3ccnc3)Cc3ccc(F)cc3)c(C)c2c1 [KKL-1041],16
6,CC(=O)CC1(OC(C)=O)C(=O)N(C)c2ccccc21 (centres unmarked) [KKL-1624],0
7,COc1ccc(NC(=O)N2CCCC(C(=O)c3cc(F)ccc3OC)C2)cc1Cl (centres unmarked) [KKL-0481],0
8,CC(C)CC(O)C1CCN(c2nncc(-c3cccc(F)c3)n2)CC1 (centres unmarked) [KKL-1161],0
9,N#Cc1cc2c(nc1SCC(=O)OCc1ccccc1)CCC2 [KKL-0607],0
10,CN(C)c1ccc(Nc2ncnc3ccc(Br)cc23)cc1 [KKL-1044],0
11,Cn1c(=O)c2c([S+](C)[O-])snc2n(C)c1=O (centres unmarked) [KKL-1817],0
12,OC(CN1CCC(O)(c2ccc(C(F)(F)F)cc2)CC1)c1ccc(Cl)cc1 (centres unmarked) [KKL-1042],9
13,COc1ccc(CN2CCC(c3cc4nc(C)cc(C(F)(F)F)n4n3)C2)c(OC)c1 (centres unmarked) [KKL-0537],0
14,Cc1ccc(C(C)C)c(OCCCCn2ccnc2)c1 [KKL-1083],11
15,Brc1ccc2ncnc(Nc3ccc(N4CCCC4)cc3)c2c1 [KKL-1293],0
16,CCOC(=O)c1cc(-c2csc(Nc3c(C)cc(C)cc3C)n2)on1 [KKL-1760],0
17,COc1cc(C(=O)N2CCc3c([nH]c4ccccc34)C2c2ccccn2)c2ccccc2n1 (centres unmarked) [KKL-1188],0
18,CC(=O)OC1CC2C(COC(=O)CC(C)C)=COC(OC(=O)CC(C)C)C2C1(O)CCl (centres unmarked) [KKL-1612],0
19,CCOC(=O)C1=Nc2ccccc2C1=[N+]=[N-] [KKL-0987],0
20,COc1ccc(CN2CCN(CC(O)Cn3c4ccccc4c4ccccc43)CC2)cc1 (centres unmarked) [KKL-1520],0
21,CN(C)CC(C)(C)CNc1cc(-c2ccccc2)nc2cc(-c3cccc(F)c3)nn12 [KKL-0523],0

row,SMILES,% activation [%]
1,CC1CCCN(CCC(=O)c2ccc(Br)cc2)C1 (centres unmarked) [KKL-0974],7
2,COc1ccc(CCN=C(S)N2CCN(C/C=C/c3ccccc3)CC2)cc1OC [KKL-1528],2
3,CC(C)C(=O)N1CCN(c2ccccc2NC(=O)c2ccc([N+](=O)[O-])o2)CC1 [KKL-1300],0
4,O=C1c2cccc3c([N+](=O)[O-])ccc(c23)C(=O)N1Cc1cccnc1 [KKL-0365],0
5,O=[N+]([O-])c1cnc(-c2nc3ccccc3[nH]2)s1 [KKL-1884],0
6,CC1CC(C)CN(C(=O)c2ccc(CN=c3c(N4CCCC4)c(O)c3=O)cc2)C1 (centres unmarked) [KKL-1229],6
7,COc1ccc2cc(-c3[nH]ncc3CNCc3ccc(C(F)(F)F)cc3)ccc2c1 [KKL-1118],0
8,COC(=O)C(C)Oc1ccc2c(=O)c(Oc3ccccc3Br)coc2c1 (centres unmarked) [KKL-1421],0
9,CCC(NC(=O)c1cnc(C(C)(C)C)nc1)c1ccc(F)cc1 (centres unmarked) [KKL-0932],5
10,CCOc1ccccc1CNc1ccc(C2c3ccsc3CCN2C(C)=O)cc1 (centres unmarked) [KKL-1040],0
11,COc1ccc(C)cc1NC(=O)c1ccc(Cc2ccc(C)cc2)o1 [KKL-1194],7
12,Cc1cc(OCC(=O)NCc2ccccc2)c2cc(Br)ccc2n1 [KKL-1832],6
13,COc1ccccc1-c1coc2cc(OCC(=O)OCc3ccccc3)ccc2c1=O [KKL-0913],0
14,COC(=O)C(CCSC)NC(=O)c1cc(COc2ccc(F)cc2Cl)on1 (centres unmarked) [KKL-0497],9
15,Clc1ccc(CNCc2c[nH]nc2-c2ccc(-c3ccccc3)cc2)s1 [KKL-1155],0
16,Cc1c(C(=O)NC(=S)Nc2ccc(Oc3ccc(Cl)cc3)cc2)cccc1[N+](=O)[O-] [KKL-0735],17
17,O=C(NNC(=O)c1ccc([N+](=O)[O-])o1)c1ccc2ccccc2c1 [KKL-1882],0
18,C#CCOc1cccc(CN2CCn3cccc3C2CC)c1 (centres unmarked) [KKL-0516],0
19,N=c1c2c(-c3ccccc3)c(-c3ccccc3)n(Cc3ccco3)c2ncn1Cc1ccccc1 [KKL-0887],0
20,COCc1nnc(NC(=O)c2cc(-c3ccc(F)cc3)n(C)n2)s1 [KKL-0683],0
